# Experimental data taken from patent US20080113101A1, “ORGANIC-ELECTROLUMINESCENCE-MATERIAL-CONTAINING SOLUTION, METHOD FOR FORMING THIN FILM OF ORGANIC ELECTROLUMINESCENCE MATERIAL, THIN FILM OF ORGANIC ELECTROLUMINESCENCE MATERIAL AND ORGANIC ELECTROLUMINESCENCE DEVICE” (Idemitsu Kosan Co., Ltd., priority 2006, published 2008).
# Some entries share one result that the patent states for a list of compounds.
# Test: Solubility Evaluation 1: solubility of host compounds in toluene
# Assay type: physicochemical
# Procedure: Solubility Evaluation 1 was conducted by the following method.
# A hundred mg of each compound was placed in a sample pot and the toluene as the solvent was added until the compound was dissolved. The solubility in the toluene was obtained from an amount of the added toluene.
Structure (SMILES),solubility in the toluene (in words),solubility in toluene [wt %]
c1ccc2cc(-c3ccc(-c4c5ccccc5c(-c5ccc(-c6cccc7ccccc67)cc5)c5ccccc45)cc3)ccc2c1 [Compound H1],high solubility,
c1cc(-c2ccc(-c3cccc4ccccc34)cc2)cc(-c2c3ccccc3c(-c3ccc(-c4cccc5ccccc45)cc3)c3ccccc23)c1 [Compound H2],high solubility,
c1ccc2cc(-c3ccc4cc(-c5c6ccccc6c(-c6ccc(-c7cccc8ccccc78)cc6)c6ccccc56)ccc4c3)ccc2c1 [Compound H3],high solubility,
c1ccc2cc(-c3c4ccccc4c(-c4ccc(-c5cccc6ccccc56)cc4)c4ccccc34)ccc2c1 [Compound H4],high solubility,
c1ccc(-c2cc(-c3ccc4ccccc4c3)cc(-c3c4ccccc4c(-c4ccc5ccccc5c4)c4ccccc34)c2)cc1 [Compound H5],high solubility,
"c1cc(-c2ccc3ccccc3c2)cc(-c2c3ccccc3c(-c3cccc4ccccc34)c3ccccc23)c1 [Compound H6, reference compound]",,≤ 0.5
"c1cc(-c2ccc3ccccc3c2)cc(-c2c3ccccc3c(-c3ccc4cc(-c5ccc6ccccc6c5)ccc4c3)c3ccccc23)c1 [Compound H7, reference compound]",,≤ 0.5
"c1ccc(-c2ccc(-c3c4ccccc4c(-c4ccccc4)c4ccccc34)cc2)cc1 [Compound H8, reference compound]",,≤ 0.5
